Measurements as given in patent US7718651B2, “Inhibitors of FtsZ and uses thereof” (priority 2002, dated 2010).

The chains behind the UniProt entries cited, without tags or fusion partners. Where a name states a change or a piece, a line headed by the entry shows the natural chain unless it says otherwise.
UniProt P9WN95: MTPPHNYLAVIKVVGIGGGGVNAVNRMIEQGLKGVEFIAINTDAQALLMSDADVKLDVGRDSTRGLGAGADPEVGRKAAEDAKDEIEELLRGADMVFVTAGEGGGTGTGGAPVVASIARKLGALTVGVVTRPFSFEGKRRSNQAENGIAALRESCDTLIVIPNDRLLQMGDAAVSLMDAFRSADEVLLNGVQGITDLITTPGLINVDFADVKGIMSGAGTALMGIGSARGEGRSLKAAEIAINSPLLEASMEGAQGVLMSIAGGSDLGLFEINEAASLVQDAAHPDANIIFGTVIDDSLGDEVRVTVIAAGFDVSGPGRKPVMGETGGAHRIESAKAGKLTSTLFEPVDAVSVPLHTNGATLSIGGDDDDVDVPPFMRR

Biological target: M. tuberculosis FtsZ (Mycobacterium tuberculosis, UniProt P9WN95)
Assay: biochemical

For `COc1cc2c(c(OC)c1OC)-c1ccc(OC)c(=O)cc1[C@@H](NC(C)=O)CC2` [Colchicine, reference compound], the IC50 was 104 ± 2 µM.
